Results are given in words; binding and its absence hold for the method and conditions named. In cells and extracts the contact can be indirect. Some results given as binding are weak or reduced against the parent protein; the word gives no strength.
Molecular target: HA-PLK1 (UniProt P53350)
Experiment: co-IP; HEK293T cells transfected with Flag-Soga1 and HA-PLK1; lysates immunoprecipitated with Flag or HA antibodies; lysis buffer 20 mM Tris-HCl pH 8.0, 100 mM NaCl, 0.5% NP-40; 4°C

Chains of the proteins cited; added tags and fusions are not shown.
UniProt P53350: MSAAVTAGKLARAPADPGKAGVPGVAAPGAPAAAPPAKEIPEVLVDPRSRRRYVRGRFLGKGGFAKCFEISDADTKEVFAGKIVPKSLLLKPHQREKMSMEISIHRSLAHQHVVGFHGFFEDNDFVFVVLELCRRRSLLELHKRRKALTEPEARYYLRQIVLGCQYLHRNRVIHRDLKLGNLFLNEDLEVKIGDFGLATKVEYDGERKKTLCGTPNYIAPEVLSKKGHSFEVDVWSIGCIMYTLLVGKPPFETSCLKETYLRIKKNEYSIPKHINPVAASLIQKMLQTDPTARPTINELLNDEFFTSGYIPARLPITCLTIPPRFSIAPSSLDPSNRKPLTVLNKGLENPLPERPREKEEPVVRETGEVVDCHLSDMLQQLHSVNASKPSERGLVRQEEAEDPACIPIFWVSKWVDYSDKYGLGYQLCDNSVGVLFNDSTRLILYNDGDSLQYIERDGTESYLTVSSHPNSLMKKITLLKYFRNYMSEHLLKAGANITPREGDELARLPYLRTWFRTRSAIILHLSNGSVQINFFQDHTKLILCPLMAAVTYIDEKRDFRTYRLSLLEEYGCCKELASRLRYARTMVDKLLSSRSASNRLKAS
UniProt O94964: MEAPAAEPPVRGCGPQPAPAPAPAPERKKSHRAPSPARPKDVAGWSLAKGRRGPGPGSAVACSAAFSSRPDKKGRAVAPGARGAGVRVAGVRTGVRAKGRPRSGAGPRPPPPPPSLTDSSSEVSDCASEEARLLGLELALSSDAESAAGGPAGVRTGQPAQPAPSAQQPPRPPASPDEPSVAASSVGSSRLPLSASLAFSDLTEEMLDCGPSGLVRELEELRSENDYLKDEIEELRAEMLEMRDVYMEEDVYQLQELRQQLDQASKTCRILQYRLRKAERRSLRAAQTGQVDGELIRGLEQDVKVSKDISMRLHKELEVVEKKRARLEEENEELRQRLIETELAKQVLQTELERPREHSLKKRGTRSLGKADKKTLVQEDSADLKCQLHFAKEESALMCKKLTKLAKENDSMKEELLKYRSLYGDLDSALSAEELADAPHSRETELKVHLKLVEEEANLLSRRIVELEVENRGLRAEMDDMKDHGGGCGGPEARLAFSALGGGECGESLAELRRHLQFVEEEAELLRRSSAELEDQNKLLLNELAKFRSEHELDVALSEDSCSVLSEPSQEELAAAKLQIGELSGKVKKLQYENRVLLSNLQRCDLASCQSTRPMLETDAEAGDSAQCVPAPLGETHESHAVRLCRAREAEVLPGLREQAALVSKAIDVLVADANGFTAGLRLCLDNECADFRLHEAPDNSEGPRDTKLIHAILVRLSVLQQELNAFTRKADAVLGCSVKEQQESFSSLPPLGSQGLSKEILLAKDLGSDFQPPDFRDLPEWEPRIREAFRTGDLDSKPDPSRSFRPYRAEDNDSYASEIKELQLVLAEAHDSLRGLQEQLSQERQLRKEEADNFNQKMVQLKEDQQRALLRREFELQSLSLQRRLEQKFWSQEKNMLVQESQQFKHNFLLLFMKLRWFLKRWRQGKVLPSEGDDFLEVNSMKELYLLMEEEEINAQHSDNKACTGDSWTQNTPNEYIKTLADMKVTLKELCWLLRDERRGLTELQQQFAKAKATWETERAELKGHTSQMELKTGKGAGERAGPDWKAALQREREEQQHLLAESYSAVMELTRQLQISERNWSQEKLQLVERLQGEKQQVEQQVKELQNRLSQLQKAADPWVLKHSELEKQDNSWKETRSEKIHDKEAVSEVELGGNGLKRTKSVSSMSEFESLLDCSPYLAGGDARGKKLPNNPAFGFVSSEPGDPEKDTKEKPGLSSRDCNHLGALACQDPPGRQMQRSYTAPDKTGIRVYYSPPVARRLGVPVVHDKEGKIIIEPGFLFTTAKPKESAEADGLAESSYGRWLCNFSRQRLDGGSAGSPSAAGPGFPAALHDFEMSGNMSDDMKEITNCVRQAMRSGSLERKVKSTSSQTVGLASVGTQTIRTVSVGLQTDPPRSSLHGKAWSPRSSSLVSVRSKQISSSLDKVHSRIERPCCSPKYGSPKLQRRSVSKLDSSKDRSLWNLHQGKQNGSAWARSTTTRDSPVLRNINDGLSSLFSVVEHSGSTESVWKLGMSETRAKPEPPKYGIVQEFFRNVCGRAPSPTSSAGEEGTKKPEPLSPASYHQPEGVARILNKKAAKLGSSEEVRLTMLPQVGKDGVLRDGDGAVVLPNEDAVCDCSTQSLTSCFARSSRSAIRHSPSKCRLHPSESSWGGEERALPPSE

binding: binds
Substance: Flag-Soga1 (suppressor of glucose by autophagy 1) (from UniProt O94964 1-1661)

Source: publication PMC11056707
